System: GABA-A receptors
Test: Displacement of [3H] muscimol from GABA-A receptors
Assay type: binding
Description: Muscimol is the principal psychoactive constituent of Amanita muscaria and related species of mushroom.
These tests were performed using the procedure described by Tomasz Plech et. al., Studies on anticonvulsant activity of 4-alkyl-1,2,4-triazole-3-thiones and their effect on GABAergic system; European J. of Medicinal Chem. 2014, 86, 690-699.

SMILES: NCCCC(=O)O [GABA, γ-aminobutyric acid, reference compound]
- % of [3H]-MUSCIMOL inhibition (LOG OF MOLAR CONC. −4): 100%
- % of [3H]-MUSCIMOL inhibition (LOG OF MOLAR CONC. −5): 94%

— patent publication US9688613B2 (Jiva Pharma, Inc., priority 2015, dated 2017)
